{"source": "PubChem BioAssay AID504744 (Drosophila RNAi Screening Center, 2011)", "test": "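Find genes whose loss alters insulin-driven dAkt phosphorylation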 (primary screen)", "cell system": "Drosophila Kc167 cells", "reagent": "long dsRNA against Drosophila genes, 250 ng dsRNA per well of a 384-well plate", "time to read-out": "3 days of knock-down, then overnight serum-free starvation before stimulation", "conditions": "bovine insulin at 387 nM for 10 minutes after 12 h without serum", "measured": "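Per-well phospho-dAkt level from an in-cell fluorescent antibody stain, divided by a DNA-dye signal; log2 residuals turned into z-scores that take cell number into account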", "rule for the call": "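Hit in the insulin screen when the two-replicate mean z-score is more extreme than plus or minus 2.5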", "note": "In all, the deposit lists about 23,000 reagents; this is an unselected part of those with a known target gene and a result. Over the whole deposit, 98 (0.43%) are marked active. 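Only hit calls are given; the phospho-dAkt signals, z-scores and hit direction were not deposited.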 The numbers tell different reagents against one gene apart. A plus sign joins genes that one reagent is predicted to hit. Reagent sequences are not shown."}
{"gene":"CG34435","reagent no.":1,"call":"inactive"}
{"gene":"CG15873","reagent no.":1,"call":"inactive"}
{"gene":"hale (hale-bopp)","reagent no.":1,"call":"inactive"}
{"gene":"CG32507","reagent no.":1,"call":"inactive"}
{"gene":"CG15201","reagent no.":1,"call":"inactive"}
{"gene":"CG1116","reagent no.":1,"call":"inactive"}
{"gene":"CG4592","reagent no.":1,"call":"inactive"}
{"gene":"CG33463","reagent no.":1,"call":"inactive"}
{"gene":"Etfb (Electron transfer flavoprotein beta subunit)","reagent no.":1,"call":"inactive"}
{"gene":"mRpL20 (mitochondrial ribosomal protein L20)","reagent no.":1,"call":"inactive"}
{"gene":"Gss1 + Gss2","reagent no.":1,"call":"inactive"}
{"gene":"Gss1 + Gss2","reagent no.":2,"call":"inactive"}
{"gene":"CG6839","reagent no.":1,"call":"inactive"}
{"gene":"Brca2 (BRCA2, DNA repair associated)","reagent no.":1,"call":"inactive"}
{"gene":"Brca2 (BRCA2, DNA repair associated)","reagent no.":2,"call":"inactive"}
{"gene":"Ice2 (Interacts with the C terminus of ELL 2)","reagent no.":1,"call":"inactive"}
{"gene":"CG15894","reagent no.":1,"call":"inactive"}
{"gene":"CG15894","reagent no.":2,"call":"inactive"}
{"gene":"klhl10 (kelch like family member 10)","reagent no.":1,"call":"inactive"}
{"gene":"klhl10 (kelch like family member 10)","reagent no.":2,"call":"inactive"}
{"gene":"klhl10 (kelch like family member 10)","reagent no.":3,"call":"inactive"}
{"gene":"klhl10 (kelch like family member 10)","reagent no.":4,"call":"inactive"}
{"gene":"CG43861","reagent no.":1,"call":"inactive"}
{"gene":"Nep6 (Neprilysin 6)","reagent no.":1,"call":"inactive"}
{"gene":"sNPF-R (short neuropeptide F receptor)","reagent no.":1,"call":"inactive"}
{"gene":"AspRS (Aspartyl-tRNA synthetase)","reagent no.":1,"call":"inactive"}
{"gene":"CG14013","reagent no.":1,"call":"inactive"}
{"gene":"CG14383","reagent no.":1,"call":"inactive"}
{"gene":"CecB (Cecropin B)","reagent no.":1,"call":"inactive"}
{"gene":"CG2790","reagent no.":1,"call":"inactive"}
{"gene":"CG8141","reagent no.":1,"call":"inactive"}
{"gene":"CG14000","reagent no.":1,"call":"inactive"}
{"gene":"CG8468","reagent no.":1,"call":"inactive"}
{"gene":"ftz (fushi tarazu)","reagent no.":1,"call":"inactive"}
{"gene":"CG5665","reagent no.":1,"call":"inactive"}
{"gene":"RpL22 (Ribosomal protein L22)","reagent no.":1,"call":"inactive"}
{"gene":"RpL22 (Ribosomal protein L22)","reagent no.":2,"call":"inactive"}
{"gene":"FipoQ (F-box involved in polyQ pathogenesis)","reagent no.":1,"call":"inactive"}
{"gene":"CG33506","reagent no.":1,"call":"inactive"}

4 neighbouring reagents from above, quoted:
{"gene":"Ice2 (Interacts with the C terminus of ELL 2)","reagent no.":1,"call":"inactive"}
{"gene":"CG15894","reagent no.":1,"call":"inactive"}
{"gene":"CG15894","reagent no.":2,"call":"inactive"}
{"gene":"klhl10 (kelch like family member 10)","reagent no.":1,"call":"inactive"}
